Results deposited as PubChem BioAssay AID1259405 (NCATS, 2018)

- Purpose: 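Mouse-designed siRNAs used to find CHO productivity engineering targets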 (primary screen)
- Cells: Chinese hamster CHO-K1 ovary cells with stable secreted eGFP expression
- Knock-down reagent: single siRNA against mouse genes, 0.8 pmol siRNA per well (2 µl of 400 nM stock)
- Time to read-out: 3 days
- Read-out: 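Percent of the per-plate non-targeting control median for intracellular GFP per well by laser scanning cytometry and for cell viability by ATP luminescence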
- Scale: GFP, % of control: higher = more GFP per well, higher productivity; viability (ATP), % of control: higher = more viable cells (more ATP)
- Hit rule: 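Called active when intracellular GFP, relative to negative control, is at or above 120%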
Shown is an unselected part of about 50,000 reagents tested. In the full data, about 4,000 (8%) are marked active. 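Mouse siRNA library applied to hamster cells; one well for each siRNA.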 Reagents against one gene are numbered here.

no.	gene	reagent	GFP, % of control	viability (ATP), % of control	Outcome
1	Lipe (lipase E, hormone sensitive type)	1	128	91.8	active
2	Lipe (lipase E, hormone sensitive type)	2	43.9	65.7	inactive
3	Lipe (lipase E, hormone sensitive type)	3	49.8	50.6	inactive
4	Medag (mesenteric estrogen dependent adipogenesis)	1	67.6	73	inactive
5	Medag (mesenteric estrogen dependent adipogenesis)	2	47.8	75.3	inactive
6	Medag (mesenteric estrogen dependent adipogenesis)	3	97.4	103	inactive
7	Slc22a2	1	66.5	74.3	inactive
8	Slc22a2	2	64.8	63.7	inactive
9	Slc22a2	3	85.2	85.2	inactive
10	Mex3a (mex3 RNA binding family member A)	1	55.6	60.1	inactive
11	Mex3a (mex3 RNA binding family member A)	2	89.6	92.7	inactive
12	Mex3a (mex3 RNA binding family member A)	3	95.5	70.1	inactive
13	Sumo2 (small ubiquitin-like modifier 2)	1	122	68.9	active
14	Sumo2 (small ubiquitin-like modifier 2)	2	96.9	107	inactive
15	Sumo2 (small ubiquitin-like modifier 2)	3	121	97.3	active
16	Coil (coilin)	1	67	103	inactive
17	Coil (coilin)	2	202	82.9	active
18	Coil (coilin)	3	96.3	96.1	inactive
19	Or2a56 (olfactory receptor family 2 subfamily A member 56)	1	43.3	39	inactive
20	Or2a56 (olfactory receptor family 2 subfamily A member 56)	2	105	77.9	inactive
21	Or2a56 (olfactory receptor family 2 subfamily A member 56)	3	67.9	65.2	inactive
22	Flt3l (FMS-like tyrosine kinase 3 ligand)	1	122	85.9	active
23	Flt3l (FMS-like tyrosine kinase 3 ligand)	2	79.8	61.8	inactive
24	Kmo (kynurenine 3-monooxygenase)	1	115	76.4	inactive
25	Kmo (kynurenine 3-monooxygenase)	2	86.5	61.4	inactive
26	Kmo (kynurenine 3-monooxygenase)	3	113	73	inactive
27	Pnmt (phenylethanolamine-N-methyltransferase)	1	123	126	active
28	Pnmt (phenylethanolamine-N-methyltransferase)	2	95.7	111	inactive
29	Pnmt (phenylethanolamine-N-methyltransferase)	3	72.2	83.8	inactive
30	Lpar3 (lysophosphatidic acid receptor 3)	1	55.2	45.1	inactive
31	Lpar3 (lysophosphatidic acid receptor 3)	2	65.6	37.3	inactive
32	Lpar3 (lysophosphatidic acid receptor 3)	3	98.8	50.5	inactive

The list goes on; the last 8 above are carried over.
no.	gene	reagent	GFP, % of control	viability (ATP), % of control	Outcome
25	Kmo (kynurenine 3-monooxygenase)	2	86.5	61.4	inactive
26	Kmo (kynurenine 3-monooxygenase)	3	113	73	inactive
27	Pnmt (phenylethanolamine-N-methyltransferase)	1	123	126	active
28	Pnmt (phenylethanolamine-N-methyltransferase)	2	95.7	111	inactive
29	Pnmt (phenylethanolamine-N-methyltransferase)	3	72.2	83.8	inactive
30	Lpar3 (lysophosphatidic acid receptor 3)	1	55.2	45.1	inactive
31	Lpar3 (lysophosphatidic acid receptor 3)	2	65.6	37.3	inactive
32	Lpar3 (lysophosphatidic acid receptor 3)	3	98.8	50.5	inactive
33	Zc3hav1l (zinc finger CCCH-type, antiviral 1-like)	1	45.3	38.1	inactive
34	Zc3hav1l (zinc finger CCCH-type, antiviral 1-like)	2	61.9	56.5	inactive
35	Zc3hav1l (zinc finger CCCH-type, antiviral 1-like)	3	88.6	94.6	inactive
36	Edc3 (enhancer of mRNA decapping 3)	1	30.4	33.2	inactive
37	Edc3 (enhancer of mRNA decapping 3)	2	109	51.1	inactive
38	Edc3 (enhancer of mRNA decapping 3)	3	88.1	102	inactive
39	Rnf150 (ring finger protein 150)	1	99	97.1	inactive
40	Rnf150 (ring finger protein 150)	2	33.2	47.6	inactive
41	Rnf150 (ring finger protein 150)	3	44	42.1	inactive
42	Lrrtm4 (leucine rich repeat transmembrane neuronal 4)	1	52.7	62.7	inactive
43	Lrrtm4 (leucine rich repeat transmembrane neuronal 4)	2	59.4	91.6	inactive
44	Lrrtm4 (leucine rich repeat transmembrane neuronal 4)	3	92.5	94.8	inactive
45	Siglecg (sialic acid binding Ig-like lectin G)	1	69.6	83.1	inactive
46	Siglecg (sialic acid binding Ig-like lectin G)	2	98.8	75.5	inactive
47	Fkbp3 (FK506 binding protein 3)	1	45.2	71.1	inactive
48	Fkbp3 (FK506 binding protein 3)	2	89.8	91.9	inactive
49	Fkbp3 (FK506 binding protein 3)	3	114	120	inactive
50	Wdr37 (WD repeat domain 37)	1	17.1	64.8	inactive
51	Wdr37 (WD repeat domain 37)	2	59.4	76.3	inactive
52	Wdr37 (WD repeat domain 37)	3	64.8	70	inactive
53	Slc24a5	1	65.8	61.4	inactive
54	Slc24a5	2	85.4	71.8	inactive
55	Slc24a5	3	83.7	72.5	inactive
56	Med22 (mediator complex subunit 22)	1	129	69.8	active
57	Med22 (mediator complex subunit 22)	2	93.3	69.9	inactive
58	Med22 (mediator complex subunit 22)	3	109	75.8	inactive
59	Chpf (chondroitin polymerizing factor)	1	123	96.5	active
60	Chpf (chondroitin polymerizing factor)	2	90.4	116	inactive
61	Chpf (chondroitin polymerizing factor)	3	125	113	active
62	Gpc2 (glypican 2 cerebroglycan)	1	48.6	53.3	inactive
63	Gpc2 (glypican 2 cerebroglycan)	2	123	74.1	active
64	Gpc2 (glypican 2 cerebroglycan)	3	108	54.4	inactive
65	Exoc8 (exocyst complex component 8)	1	67.2	87.5	inactive
66	Exoc8 (exocyst complex component 8)	2	120	93	inactive
67	Exoc8 (exocyst complex component 8)	3	129	63.3	active
68	Uevld (UEV and lactate/malate dehyrogenase domains)	1	82.8	45	inactive
69	Uevld (UEV and lactate/malate dehyrogenase domains)	2	77.6	101	inactive
70	Uevld (UEV and lactate/malate dehyrogenase domains)	3	49.4	44.1	inactive
71	Dao (D-amino acid oxidase)	1	85.1	90.8	inactive
72	Dao (D-amino acid oxidase)	2	31	33.5	inactive
73	Dao (D-amino acid oxidase)	3	78.9	68.9	inactive
74	Vamp8 (vesicle-associated membrane protein 8)	1	45.6	55.1	inactive
75	Vamp8 (vesicle-associated membrane protein 8)	2	82.6	80.9	inactive
76	Vamp8 (vesicle-associated membrane protein 8)	3	47	48.7	inactive
77	Nkain1 (Na+/K+ transporting ATPase interacting 1)	1	82.3	77.7	inactive
78	Nkain1 (Na+/K+ transporting ATPase interacting 1)	2	88.9	76.9	inactive
79	Nkain1 (Na+/K+ transporting ATPase interacting 1)	3	99.6	78.6	inactive
80	Hpse (heparanase)	1	147	107	active
81	Hpse (heparanase)	2	79.7	91	inactive
82	Hpse (heparanase)	3	136	94.3	active
83	Ptf1a (pancreas specific transcription factor, 1a)	1	71.9	86.7	inactive
84	Ptf1a (pancreas specific transcription factor, 1a)	2	48.8	57.6	inactive
85	Ptf1a (pancreas specific transcription factor, 1a)	3	93.7	103	inactive
